Source: PubChem BioAssay AID504749 (NCATS, 2011).

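A panel of P. falciparum strains inside erythrocytes is exposed to compounds for three days, then a DNA-binding dye reports the amount of parasite DNA. Each compound was titrated across a series from about 0.000037 to 29 µM. The number is the fitted AC50, the concentration giving a half-maximal change in signal; a lower value means higher potency, whether the curve shows a decrease or an increase. Calls follow the curve class and fit quality: every row here is inconclusive, covering signal-raising curves and weak, poorly fitted, partial or highest-dose-only inhibition curves.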

Values are in nM. All entries here are filed as inconclusive. These entries are mostly ones the record files as inconclusive; other results of the assay are not listed here. Potencies fitted to partial, single-point or poorly fitting curves are rough. The first word of each remark tells which way the curve ran; it can be opposite to the aim of the assay.

structure,tested on / at,fitted potency (nM),remark
CCOc1ccc2nc3cc(N)ccc3c(N)c2c1,GB4,8492,"inhibitor, partial curve, poor fit"
CCOc1ccc2nc3cc(N)ccc3c(N)c2c1,DIV30,19011,"inhibitor, single point"
CCOc1ccc2nc3cc(N)ccc3c(N)c2c1,CP325,13459,"inhibitor, partial curve, poor fit"
CCOc1ccc2nc3cc(N)ccc3c(N)c2c1,CP262,19011,"inhibitor, single point"
CCOc1ccc2nc3cc(N)ccc3c(N)c2c1,CP211,11995,"inhibitor, partial curve, poor fit"
CCOc1ccc2nc3cc(N)ccc3c(N)c2c1,CP266,19011,"inhibitor, single point"
C[C@H](N)Cc1ccccc1,DIV14,21331,"inhibitor, single point"
C[C@H](N)Cc1ccccc1,DIV17,1.5,"activator, full curve, poor fit"
CC(=O)OC1CCC2C3CCc4cc(O)ccc4C3CCC12C (stereo not drawn),W2,19011,"inhibitor, single point"
CC(=O)OC1CCC2C3CCc4cc(O)ccc4C3CCC12C (stereo not drawn),ICS,14125,"inhibitor, single point"
CC(=O)OC1CCC2C3CCc4cc(O)ccc4C3CCC12C (stereo not drawn),7G8,17782,"inhibitor, single point"
C[N+]1(C)CCC(=C(c2ccccc2)c2ccccc2)CC1,CP325,6424,"inhibitor, partial curve, poor fit"
C[N+]1(C)CCC(=C(c2ccccc2)c2ccccc2)CC1,CP262,6424,"inhibitor, single point"
C[N+]1(C)CCC(=C(c2ccccc2)c2ccccc2)CC1,FAB9,5623,"inhibitor, single point"
NCCCC(O)(P(=O)(O)O)P(=O)(O)O,CP266,4256,"activator, partial curve, poor fit"
CCCCC[C@H](O)/C=C/[C@H]1[C@H](O)CC(=O)[C@@H]1C/C=C\CCCC(=O)O,CP260,10000,"inhibitor, single point"
CCCCC[C@H](O)/C=C/[C@H]1[C@H](O)CC(=O)[C@@H]1C/C=C\CCCC(=O)O,W2,11995,"inhibitor, single point"
CCN1/C(=C/C=C/C=C/c2sc3ccccc3[n+]2CC)Sc2ccccc21,CP325,13459,"inhibitor, partial curve, poor fit"
CCN1/C(=C/C=C/C=C/c2sc3ccccc3[n+]2CC)Sc2ccccc21,PC26,9528,"inhibitor, partial curve, poor fit"
C=CC[C@@H]1/C=C(\C)C[C@H](C)C[C@H](OC)[C@H]2O[C@@](O)(C(=O)C(=O)N3CCCC[C@H]3C(=O)O[C@H](/C(C)=C/[C@@H]3CC[C@@H](O)[C@H](OC)C3)[C@H](C)[C@@H](O)CC1=O)[C@H](C)C[C@@H]2OC,CP305,3793,"inhibitor, full curve, poor fit"
C=CC[C@@H]1/C=C(\C)C[C@H](C)C[C@H](OC)[C@H]2O[C@@](O)(C(=O)C(=O)N3CCCC[C@H]3C(=O)O[C@H](/C(C)=C/[C@@H]3CC[C@@H](O)[C@H](OC)C3)[C@H](C)[C@@H](O)CC1=O)[C@H](C)C[C@@H]2OC,CP335,601.2,"inhibitor, full curve, poor fit"
COc1ccc([C@@H]2Sc3ccccc3N(CCN(C)C)C(=O)[C@@H]2OC(C)=O)cc1,7G8,19952,"inhibitor, single point"
COc1ccc([C@@H]2Sc3ccccc3N(CCN(C)C)C(=O)[C@@H]2OC(C)=O)cc1,W2,3381,"inhibitor, single point"
O=C(c1ccccc1)c1ccc2n1CC[C@H]2C(=O)O,CP266,0.2,inhibitor
O=C(c1ccccc1)c1ccc2n1CC[C@H]2C(=O)O,CP297,5726,"activator, single point"
C[C@]12C=CC(=O)N[C@@H]1CC[C@@H]1C2CC[C@]2(C)C(C(=O)Nc3cc(C(F)(F)F)ccc3C(F)(F)F)CC[C@@H]12 (stereo partly drawn),TAB165,891.3,"inhibitor, full curve, poor fit"
C[C@]12C=CC(=O)N[C@@H]1CC[C@@H]1C2CC[C@]2(C)C(C(=O)Nc3cc(C(F)(F)F)ccc3C(F)(F)F)CC[C@@H]12 (stereo partly drawn),HB3,1585,"inhibitor, full curve, poor fit"
C[C@]12C=CC(=O)N[C@@H]1CC[C@@H]1C2CC[C@]2(C)C(C(=O)Nc3cc(C(F)(F)F)ccc3C(F)(F)F)CC[C@@H]12 (stereo partly drawn),CP297,8492,"inhibitor, partial curve"
C[C@]12C=CC(=O)N[C@@H]1CC[C@@H]1C2CC[C@]2(C)C(C(=O)Nc3cc(C(F)(F)F)ccc3C(F)(F)F)CC[C@@H]12 (stereo partly drawn),DIV17,1694,"inhibitor, partial curve, poor fit"
C[C@]12C=CC(=O)N[C@@H]1CC[C@@H]1C2CC[C@]2(C)C(C(=O)Nc3cc(C(F)(F)F)ccc3C(F)(F)F)CC[C@@H]12 (stereo partly drawn),DIV14,1901,"inhibitor, single point"
C[C@]12C=CC(=O)N[C@@H]1CC[C@@H]1C2CC[C@]2(C)C(C(=O)Nc3cc(C(F)(F)F)ccc3C(F)(F)F)CC[C@@H]12 (stereo partly drawn),CP305,2393,"inhibitor, partial curve"
C[C@]12C=CC(=O)N[C@@H]1CC[C@@H]1C2CC[C@]2(C)C(C(=O)Nc3cc(C(F)(F)F)ccc3C(F)(F)F)CC[C@@H]12 (stereo partly drawn),CP268,4776,"inhibitor, partial curve, poor fit"
C[C@]12C=CC(=O)N[C@@H]1CC[C@@H]1C2CC[C@]2(C)C(C(=O)Nc3cc(C(F)(F)F)ccc3C(F)(F)F)CC[C@@H]12 (stereo partly drawn),PC49,3162,"inhibitor, single point"
C[C@]12C=CC(=O)N[C@@H]1CC[C@@H]1C2CC[C@]2(C)C(C(=O)Nc3cc(C(F)(F)F)ccc3C(F)(F)F)CC[C@@H]12 (stereo partly drawn),GB4,4256,"inhibitor, single point"
C[C@]12C=CC(=O)N[C@@H]1CC[C@@H]1C2CC[C@]2(C)C(C(=O)Nc3cc(C(F)(F)F)ccc3C(F)(F)F)CC[C@@H]12 (stereo partly drawn),CP215,19011,"inhibitor, single point"
C[C@]12C=CC(=O)N[C@@H]1CC[C@@H]1C2CC[C@]2(C)C(C(=O)Nc3cc(C(F)(F)F)ccc3C(F)(F)F)CC[C@@H]12 (stereo partly drawn),ATS95,3162,"inhibitor, single point"

Some entries from above, unchanged:

* CCN1/C(=C/C=C/C=C/c2sc3ccccc3[n+]2CC)Sc2ccccc21 [PC26] | fitted potency 9528 nM (inhibitor, partial curve, poor fit)
* C[C@]12C=CC(=O)N[C@@H]1CC[C@@H]1C2CC[C@]2(C)C(C(=O)Nc3cc(C(F)(F)F)ccc3C(F)(F)F)CC[C@@H]12 (stereo partly drawn) [PC49] | fitted potency 3162 nM (inhibitor, single point)
* C[C@]12C=CC(=O)N[C@@H]1CC[C@@H]1C2CC[C@]2(C)C(C(=O)Nc3cc(C(F)(F)F)ccc3C(F)(F)F)CC[C@@H]12 (stereo partly drawn) [ATS95] | fitted potency 3162 nM (inhibitor, single point)
* O=C(c1ccccc1)c1ccc2n1CC[C@H]2C(=O)O [CP266] | fitted potency 0.2 nM (inhibitor)